Experimental findings from paper PMC13039550 are described below.

By UniProt entry, the sequences of proteins in these tests, tags left out.
UniProt P46152: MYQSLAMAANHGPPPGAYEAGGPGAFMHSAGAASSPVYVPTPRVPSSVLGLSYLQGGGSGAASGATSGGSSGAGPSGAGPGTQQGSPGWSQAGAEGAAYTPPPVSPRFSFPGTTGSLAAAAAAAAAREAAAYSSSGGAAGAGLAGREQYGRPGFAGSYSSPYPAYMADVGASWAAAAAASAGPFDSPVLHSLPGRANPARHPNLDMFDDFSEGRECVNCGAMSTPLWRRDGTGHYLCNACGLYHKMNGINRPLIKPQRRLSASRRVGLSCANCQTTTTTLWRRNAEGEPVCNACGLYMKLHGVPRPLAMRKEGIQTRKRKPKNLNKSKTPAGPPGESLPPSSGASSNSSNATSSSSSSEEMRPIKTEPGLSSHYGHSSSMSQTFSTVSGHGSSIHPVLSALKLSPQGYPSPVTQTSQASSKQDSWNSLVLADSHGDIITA

No constants are given. Whether binding was seen depends on the method and setting. Binding seen in cells or lysates may run through a third protein. Some results given as binding are weak or reduced against the parent protein; the word gives no strength.

The target in this test is T1, SIRT1 (sirtuin 1) (rat (endogenous in primary neonatal rat cardiomyocytes)).
T1 sequence: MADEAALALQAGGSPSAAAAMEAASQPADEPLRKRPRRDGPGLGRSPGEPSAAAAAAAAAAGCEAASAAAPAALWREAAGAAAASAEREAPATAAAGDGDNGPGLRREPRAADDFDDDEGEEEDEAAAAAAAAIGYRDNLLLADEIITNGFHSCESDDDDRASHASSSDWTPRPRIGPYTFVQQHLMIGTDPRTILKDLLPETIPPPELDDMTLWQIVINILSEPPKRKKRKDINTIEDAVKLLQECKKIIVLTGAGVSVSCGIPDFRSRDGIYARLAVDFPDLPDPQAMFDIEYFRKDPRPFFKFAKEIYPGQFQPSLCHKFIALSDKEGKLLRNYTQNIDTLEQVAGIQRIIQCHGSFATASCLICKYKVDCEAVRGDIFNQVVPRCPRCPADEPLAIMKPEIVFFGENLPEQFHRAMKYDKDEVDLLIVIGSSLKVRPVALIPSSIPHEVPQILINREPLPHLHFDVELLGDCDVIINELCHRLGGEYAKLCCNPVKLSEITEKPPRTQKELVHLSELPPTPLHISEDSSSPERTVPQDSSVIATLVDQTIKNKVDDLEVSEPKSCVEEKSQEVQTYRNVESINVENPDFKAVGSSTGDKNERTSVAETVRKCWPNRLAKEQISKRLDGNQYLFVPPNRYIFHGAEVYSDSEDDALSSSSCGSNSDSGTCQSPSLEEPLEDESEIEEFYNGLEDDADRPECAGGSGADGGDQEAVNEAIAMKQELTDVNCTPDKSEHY
The test can be described thus: co-IP; cardiomyocyte lysates (cells transfected with negative control or si-SIRT1) precipitated with anti-SIRT1 antibody overnight at 4 °C, protein A/G magnetic beads, three washes with lysis buffer; immunoblot for SIRT1 and GATA4. (Immunoblotting shows a protein as a band on a membrane.)

For GATA4 (from UniProt P46152 1-440), the binding result was “binds”.
